Measurements from “University of Dundee, Small-Polar-MMV Screening Library” (2021), ChEMBL document CHEMBL3988442.

Values are the deposited “Percent Effect”, in %. The record does not define 0% and 100%; most values in the screen are far below 50% and negative numbers occur (in some assays of this library far below -100). The compounds are a random part of those screened.

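Whole-cell assay for inhibitors of Mycobacterium tuberculosis growth, labelled Cornell in the record; the read-out is not stated. The concentration is filed as 10 mM, unlikely as a test dose, so the dose is not known. Higher means stronger inhibition (inferred from two other growth screens of the library). About 53,000 compounds were tested under these conditions; 1.7% (about 900) showed 50% or more at least once.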

Compound,Percent Effect
N#Cc1c(N)nc2c(c1-c1cnc(N3CCCC3)nc1)COCC2,32.29
CN(Cc1noc(C(C)(C)C)n1)CC1CCN(CCO)CC1,3.53
CCc1c(C)nn(CCN2CC3(CCOC3)CCC2=O)c1C (stereo unspecified),13.26
CN(CCCn1cnc2c(N)ncnc21)Cc1ccccc1,19.52
[H][C@@]12C[C@@H](Oc3cccnc3)CN1CCN(Cc1ccccn1)C2,3.332
Cc1cc(C)n(C2CN(CC(=O)NCc3ccccn3)C2)n1,-14.1
CCn1cc(CNCCNc2ncc(Cl)cc2Cl)cn1,-28.89
COc1ccc(C2=C(C)C(N3CCc4ccccc43)=NS2(=O)=O)cc1,-8.852
Cc1cc(CN2CCN(S(=O)(=O)c3c(C)c(Cl)cc(C)c3Cl)CC2)on1,15.46
N#CCCN(Cc1cccnc1)C(=O)c1cccc(-n2cnnn2)c1,5.379
COc1ccc(NC(=O)N(C)Cc2ccco2)cn1,28.99
Cc1cccc(CNc2cc(C3CCCNC3)ccn2)n1.Cl (stereo unspecified),9.44
Cc1cc(CC(=O)NC2CCCN(c3ccccc3F)C2=O)n[nH]1 (stereo unspecified),-10.66
O=c1[nH]c(-c2cccnc2)nc2c1CCN(S(=O)(=O)N1CCCC1)C2,10.95
Cn1cnc2c1CCN(Cc1cccc(C(N)=O)c1)C2,-36.15
COc1ccc(F)cc1C[S+]([O-])CC(=O)NCC(C)C (stereo unspecified),-41.32
COc1cc(Cl)cc(CN2CCCC(N3CCCC3)C2)c1OC (stereo unspecified),32.75
[H][C@@]12C[C@H](C(=O)Nc3cccnc3)[C@@]([H])(CN(Cc3ccc(C)cc3)C1)O2,13.67
O=c1[nH]c2nc(NCC3CCCO3)ncc2c(=O)n1-c1cccc(F)c1 (stereo unspecified),-1.382
O=S(=O)(Nc1cnc(N2CCOCC2)nc1)c1cccc(F)c1,17.36
O=C(O)C(F)(F)F.[H][C@@]12CCN(Cc3ccco3)[C@]1([H])CC[C@H](COC)O2,-23.88
COc1ccc2c(c1)C(C(=O)NCCCN1CCN(C)CC1)CC(=O)N2 (stereo unspecified),1.679
COc1ccc(COCC(=O)N2CCC(c3nncn3C)CC2)cc1,9.202
Cc1cnccc1CN1C[C@@H](O)[C@H](Oc2ccccc2)C1,7.006
CCN(CC)c1ccc(C(=O)NCc2cccnc2-n2cncn2)cn1,3.491
Cc1ccnc(NCCCN2CCc3ccccc32)n1,-1.128
CCc1cc(CNC(=O)Nc2cc(F)cc(N3CCCC3)c2)on1,-21.89
CN1CCCC(c2nnc3n2CCN(S(=O)(=O)c2ccccc2Cl)C3)C1 (stereo unspecified),2.1
O=C(Nc1nccs1)c1csc(NC2CCCC2)n1,105.9
N#Cc1nccnc1N1CCC(Cc2ccccc2)C1 (stereo unspecified),17.71
CCn1nc(C)c(C(=O)Nc2ccc3c(c2)C(C)(C)C(=O)N3C)c1C,-16.85
Cc1cc(C)n(C2CN(CC(O)c3ccc4c(c3)OCO4)C2)n1 (stereo unspecified),33.14
O=C(O)C(F)(F)F.O=C(O)C(F)(F)F.[H][C@@]12OCCN(Cc3nccs3)[C@@]1([H])CC[C@@H]2OCc1ccccn1,7.063
CC(NC(=O)c1cccs1)C(=O)NCc1ccccc1CN1CCCC1 (stereo unspecified),6.062
CCOC1CCN(C(=O)NCc2ccc(CN3CCOCC3)cc2)CC1,13.98
Cc1ncc2c(n1)CN(Cc1nc(C)c(C)o1)CC2,24.82
O=C(NCc1cccnc1)NCC(O)c1cccc(C(F)(F)F)c1 (stereo unspecified),9.135
COc1ccccc1Cc1cncc(N2CC(C(=O)O)C2)n1.Cl,10.89
CCOC(=O)NC(C(=O)NCc1ccc(N2CCCCC2)nc1)C(C)C (stereo unspecified),-17.7
Cn1cc(CN2CCC(c3cc(CCO)[nH]n3)C2)cn1 (stereo unspecified),13.14
Cc1ccc(C(=O)NCCNC(=O)c2cncnc2C(C)C)cc1F,24.73
Cc1cc2c(cc1Cl)C=CC1(CCN(CC(=O)N3CCOCC3)CC1)O2,-15.66
Cc1n[nH]c(C)c1C1COCCN1C(=O)Cc1cccc(F)c1 (stereo unspecified),-2.624
Cc1cccc(C)c1CNC1(CCO)CCOCC1,7.955
Cc1nn(C)c(C)c1OCC(=O)N1CCCCC1,12.78
O=C(C1CCOCC1)N1CCc2ncc(CN3CCCC3)n2CC1.O=C(O)C(F)(F)F,-28.8
Cc1noc(C)c1-c1cccc(C2CCCNC2)n1 (stereo unspecified),10.77
CC(C)N(CCNc1nc(C2CCCC2)nc2c1cnn2C)C(C)C,95.65
NC(=O)C1CCCN(c2ccc(CNC(=O)c3cnsn3)cc2)C1 (stereo unspecified),-38.73
Cc1nn(C)cc1CN(C)C(=O)c1ccccn1,5.012
[H][C@@]12CN(CC(C)C)C[C@]1([H])OCC(=O)N2c1ccccc1,-24.52
CC(C)c1noc(C[S+]([O-])CC(=O)Nc2ccc(F)c(F)c2)n1 (stereo unspecified),60.65
COC(=O)[C@H](C)NC(=O)Cn1ccc2ccc(F)cc21,47.73
CCc1ncc(C(=O)N2CCn3c(CC)nnc3C2)s1,2.157
CN(C)C(=O)CN1CCC2(CCCN(Cc3cccs3)C2)C1=O.O=C(O)C(F)(F)F (stereo unspecified),10.48
Cn1cc(C2COC3(CCN(C(=O)Cc4ccccc4)CC3)C2)cn1 (stereo unspecified),-4.334
NS(=O)(=O)c1cnc(NCC2(c3ccccc3)CCC2)s1,26.63
CCOc1cc(C(=O)N2CCCC(c3noc(C)n3)C2)ccc1OC (stereo unspecified),13.87
CCN1CC2(CC1=O)CN(Cc1ccsc1)CCN(C(=O)C(C)C)C2.O=C(O)C(F)(F)F (stereo unspecified),4.651
CC1=C[C@@H](CN2CCC(O)CC2)[C@H](C(C)C)C[C@H]1Cc1nnc(C)o1,-18.97
CC(C)COCCC(=O)NCCC(=O)N1CCN(c2ccccn2)CC1,21.42
Cn1cc(CN2CCC(c3ncc(Cl)cc3S(C)(=O)=O)CC2)cn1,39.28
[H][C@@]12CCCCCN(C(C)=O)[C@@]1([H])[C@H](c1cccc(F)c1)CN2C(=O)C1CC1,-8.904
Cc1nn(C)c(N2CCOCC2)c1CNC1CCCCNC1=O (stereo unspecified),-11.46
N#Cc1cccc(Cl)c1NCCc1n[nH]c(=O)[nH]1,-13.34
Cc1cccc2ncnc(N3CCOC(C)C3)c12 (stereo unspecified),-6.172
CN(CCc1cn[nH]c1)C(=O)C1CC(=O)N(Cc2cccnc2)C1 (stereo unspecified),-18.03
C[C@@H]1CN(C(=O)C2CCS(=O)(=O)CC2)C[C@@]1(O)C1CC1,21.72
CCS(=O)(=O)N1CCC2(CC(=O)N(c3ccc4c(c3)OCO4)C2)C1 (stereo unspecified),-14.45
Cc1nn2cc(CNc3nccc(CCC(F)(F)F)n3)nc2s1,14.28
CC(C)c1noc(C(C)N2CCN(CCCN3CCCC3=O)CC2)n1 (stereo unspecified),7.865
Cc1nnc(CN2CCC3(CCC(=O)N(C4CC4)C3)CC2)o1,36.78

Some entries from above, unchanged:

Compound,Percent Effect
CCn1cc(CNCCNc2ncc(Cl)cc2Cl)cn1,-28.89
N#Cc1c(N)nc2c(c1-c1cnc(N3CCCC3)nc1)COCC2,32.29
CN(CCc1cn[nH]c1)C(=O)C1CC(=O)N(Cc2cccnc2)C1 (stereo unspecified),-18.03
Cc1nn2cc(CNc3nccc(CCC(F)(F)F)n3)nc2s1,14.28
NC(=O)C1CCCN(c2ccc(CNC(=O)c3cnsn3)cc2)C1 (stereo unspecified),-38.73